In the experiment the target is connexin 43 (human (endogenous in HMT-3522 S1)) (UniProt P17302). The experiment can be described thus: co-IP; IP of endogenous Cx43 (0.25 μg rabbit polyclonal Cx43 antibody, protein G sepharose beads, 300 μg of proteins) from whole cell lysates of S1 cells in 2-D culture, day 6; Western blotting for Cx43, β-catenin and ZO-2.

Sequences of proteins named here, by UniProt entry; tags and fusion partners are left off.
UniProt P17302: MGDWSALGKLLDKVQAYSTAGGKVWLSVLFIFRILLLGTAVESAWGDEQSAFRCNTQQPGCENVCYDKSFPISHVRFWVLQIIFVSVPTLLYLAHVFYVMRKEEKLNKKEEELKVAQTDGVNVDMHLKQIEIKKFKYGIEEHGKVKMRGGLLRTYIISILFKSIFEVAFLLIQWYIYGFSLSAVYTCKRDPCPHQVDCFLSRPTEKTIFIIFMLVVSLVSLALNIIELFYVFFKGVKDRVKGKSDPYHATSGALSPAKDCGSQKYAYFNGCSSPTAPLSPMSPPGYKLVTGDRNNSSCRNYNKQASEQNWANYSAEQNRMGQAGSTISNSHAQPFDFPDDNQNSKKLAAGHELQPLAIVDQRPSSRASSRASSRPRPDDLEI
UniProt P35222: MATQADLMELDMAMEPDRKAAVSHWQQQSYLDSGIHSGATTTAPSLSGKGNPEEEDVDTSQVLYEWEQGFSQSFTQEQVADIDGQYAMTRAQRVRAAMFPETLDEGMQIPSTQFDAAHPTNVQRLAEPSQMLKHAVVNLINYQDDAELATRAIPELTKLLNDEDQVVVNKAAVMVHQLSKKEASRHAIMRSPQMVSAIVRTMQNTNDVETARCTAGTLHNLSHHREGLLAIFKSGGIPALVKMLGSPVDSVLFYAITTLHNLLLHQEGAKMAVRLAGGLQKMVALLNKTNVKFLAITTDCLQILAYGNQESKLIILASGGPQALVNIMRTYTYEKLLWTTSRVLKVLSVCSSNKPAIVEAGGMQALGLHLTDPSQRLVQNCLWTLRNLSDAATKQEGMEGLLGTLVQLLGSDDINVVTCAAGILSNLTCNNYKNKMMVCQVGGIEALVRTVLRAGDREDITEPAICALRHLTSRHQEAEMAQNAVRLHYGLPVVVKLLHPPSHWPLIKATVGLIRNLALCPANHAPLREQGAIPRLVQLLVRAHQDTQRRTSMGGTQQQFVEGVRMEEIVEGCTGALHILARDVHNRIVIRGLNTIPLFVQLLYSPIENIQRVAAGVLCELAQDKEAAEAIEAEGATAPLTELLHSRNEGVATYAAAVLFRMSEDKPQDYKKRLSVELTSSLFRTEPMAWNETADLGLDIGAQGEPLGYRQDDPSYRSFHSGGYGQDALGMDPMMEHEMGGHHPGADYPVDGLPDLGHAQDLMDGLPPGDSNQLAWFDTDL

Experimental findings from article PMC6468895 are described below.

No constants are given. Whether binding was seen depends on the method and setting. In cells and extracts the contact can be indirect. Some binding calls cover weakened binding; strength is not graded here.

In the case of β-catenin (from UniProt P35222 1-781), the binding result is on record as “binds”.

B1: ZO-2 (protein, UniProt Q9UDY2 1-1190)
chain: MPVRGDRGFPPRRELSGWLRAPGMEELIWEQYTVTLQKDSKRGFGIAVSGGRDNPHFENGETSIVISDVLPGGPADGLLQENDRVVMVNGTPMEDVLHSFAVQQLRKSGKVAAIVVKRPRKVQVAALQASPPLDQDDRAFEVMDEFDGRSFRSGYSERSRLNSHGGRSRSWEDSPERGRPHERARSRERDLSRDRSRGRSLERGLDQDHARTRDRSRGRSLERGLDHDFGPSRDRDRDRSRGRSIDQDYERAYHRAYDPDYERAYSPEYRRGARHDARSRGPRSRSREHPHSRSPSPEPRGRPGPIGVLLMKSRANEEYGLRLGSQIFVKEMTRTGLATKDGNLHEGDIILKINGTVTENMSLTDARKLIEKSRGKLQLVVLRDSQQTLINIPSLNDSDSEIEDISEIESNRSFSPEERRHQYSDYDYHSSSEKLKERPSSREDTPSRLSRMGATPTPFKSTGDIAGTVVPETNKEPRYQEDPPAPQPKAAPRTFLRPSPEDEAIYGPNTKMVRFKKGDSVGLRLAGGNDVGIFVAGIQEGTSAEQEGLQEGDQILKVNTQDFRGLVREDAVLYLLEIPKGEMVTILAQSRADVYRDILACGRGDSFFIRSHFECEKETPQSLAFTRGEVFRVVDTLYDGKLGNWLAVRIGNELEKGLIPNKSRAEQMASVQNAQRDNAGDRADFWRMRGQRSGVKKNLRKSREDLTAVVSVSTKFPAYERVLLREAGFKRPVVLFGPIADIAMEKLANELPDWFQTAKTEPKDAGSEKSTGVVRLNTVRQIIEQDKHALLDVTPKAVDLLNYTQWFPIVIFFNPDSRQGVKTMRQRLNPTSNKSSRKLFDQANKLKKTCAHLFTATINLNSANDSWFGSLKDTIQHQQGEAVWVSEGKMEGMDDDPEDRMSYLTAMGADYLSCDSRLISDFEDTDGEGGAYTDNELDEPAEEPLVSSITRSSEPVQHEESIRKPSPEPRAQMRRAASSDQLRDNSPPPAFKPEPPKAKTQNKEESYDFSKSYEYKSNPSAVAGNETPGASTKGYPPPVAAKPTFGRSILKPSTPIPPQEGEEVGESSEEQDNAPKSVLGKVKIFEKMDHKARLQRMQELQEAQNARIEIAQKHPDIYAVPIKTHKPDPGTPQHTSSRPPEPQKAPSRPYQDTRGSYGSDAEEEEYRQQLSEHSKRGYYGQSARYRDTEL
Regarding B1, the binding result is recorded as “binds”.
